PubChem BioAssay AID1259425 – University of Nebraska Medical Center, 2018
Screen: 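Find knockdowns that reproduce the gene expression pattern seen when KSR1 is lost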 (primary screen). Cell system: HCT116 human colon cancer cells. Reagent: siRNA pool against human genes, 50 nM siRNA. Read-out: 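After 50 nM siRNA pool, branched-DNA assay measures six marker transcripts per well, minus blank, normalised to the geometric mean of two housekeeping transcripts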. Reading the numbers: BNIP3L mRNA: higher = more BNIP3L transcript after knockdown; NDRG1 mRNA: higher = more NDRG1 transcript after knockdown; BNIP3 mRNA: higher = more BNIP3 transcript after knockdown; ALDOC mRNA: higher = more ALDOC transcript after knockdown.
Shown is an unselected part of about 14,000 deposited reagents. Not all columns of the deposit are shown. The record does not give: the time to read-out.

| gene | BNIP3L mRNA, set 1 | NDRG1 mRNA, set 1 | BNIP3 mRNA, set 1 | ALDOC mRNA, set 1 |
| --- | --- | --- | --- | --- |
| GPR160 | 0.203 | 0.205 | 0.383 | 0.0589 |
| CCNH | 0.212 | 0.914 | 0.332 | 0.0336 |
| CDKN2B | 0.0634 | 0.0626 | 0.388 | 0.0138 |
| SMARCD1 | 0.12 | 0.17 | 0.412 | 0.0156 |
| FGFBP1 | 0.103 | 0.0915 | 0.42 | 0.00731 |
| GDI1 | 0.0916 | 0.295 | 0.262 | 0.00818 |
| GABRR1 | 0.153 | 2.15 | 0.346 | 0.023 |
| ZDHHC5 | 0.185 | 0.167 | 0.676 | 0.0204 |
| SUCLA2 | 0.0555 | 0.564 | 0.351 | 0.0227 |
| SNCB | 0.107 | 0.282 | 0.294 | 0.0502 |
| PTPRN2 | 0.0477 | 0.17 | 0.277 | 0.0126 |
| PPP4R1 | 0.0954 | 0.144 | 0.127 | 0.0101 |
| SMNDC1 | 0.116 | 0.279 | 0.269 | 0.0336 |
| MAP6 | 0.0706 | 0.26 | 0.295 | 0.0162 |
| ZNF345 | 0.134 | 0.238 | 0.48 | 0.0166 |
| GRM8 | 0.298 | 0.563 | 0.974 | 0.0456 |
| PCCB | 0.0707 | 0.491 | 0.282 | 0.0227 |
| WNK4 | 0.123 | 0.155 | 0.561 | 0.0136 |
| DMWD | 0.239 | 0.205 | 0.213 | 0.0259 |
| IP6K2 | 0.162 | 0.149 | 0.785 | 0.0391 |
| PLEKHH3 | 0.0745 | 0.134 | 0.125 | 0.00993 |
| KRT7 | 0.186 | 0.571 | 0.959 | 0.088 |
| DNAAF5 | 0.0677 | 0.165 | 0.168 | 0.0157 |

Look-ups from above.
Value for DMWD under “NDRG1 mRNA, set 1”: 0.205
PCCB, BNIP3 mRNA, set 1 = 0.282
IP6K2, NDRG1 mRNA, set 1 → 0.149
For “NDRG1 mRNA, set 1”, PPP4R1 reads 0.144
Entry of ZNF345 in “ALDOC mRNA, set 1”: 0.0166
DNAAF5, BNIP3L mRNA, set 1: 0.0677

Additional records follow.
| gene | BNIP3L mRNA, set 1 | NDRG1 mRNA, set 1 | BNIP3 mRNA, set 1 | ALDOC mRNA, set 1 |
| --- | --- | --- | --- | --- |
| BRME1 | 0.0799 | 0.297 | 0.258 | 0.0288 |
| ENO3 | 0.107 | 0.416 | 0.223 | 0.0075 |
| TIRAP | 0.0524 | 0.167 | 0.303 | 0.0142 |
| ERMARD | 0.0711 | 0.113 | 0.283 | 0.0155 |
| CHGB | 0.0518 | 0.0822 | 0.199 | 0.014 |
| PSKH2 | 0.111 | 0.151 | 0.334 | 0.0211 |
| CYTH3 | 0.112 | 0.216 | 0.31 | 0.0355 |
| ABRAXAS1 | 0.196 | 0.352 | 0.194 | 0.0715 |
| SSTR4 | 0.137 | 0.241 | 0.289 | 0.0211 |
| MDK | 0.0875 | 0.286 | 0.258 | 0.0188 |
| SS18L1 | 0.247 | 0.108 | 0.884 | 0.0466 |
| AQR | 0.1 | 0.134 | 0.226 | 0.0236 |
| SLC25A5 | 0.0937 | 0.287 | 0.239 | 0.033 |
| SULT2B1 | 0.33 | 0.462 | 0.365 | 0.0215 |
| EAF2 | 0.0768 | 0.1 | 0.245 | 0.0065 |
| SLC22A2 | 0.112 | 0.263 | 0.392 | 0.0407 |
| PTGFR | 0.432 | 0.128 | 0.289 | 0.0288 |
| ETNK1 | 0.0644 | 0.0621 | 0.291 | 0.00828 |
| ZNF669 | 0.154 | 0.586 | 0.281 | 0.0627 |
| H2BC12L | 0.112 | 0.283 | 0.302 | 0.0178 |
| LILRB5 | 0.064 | 0.114 | 0.242 | 0.0165 |
| SLC16A7 | 0.0912 | 0.166 | 0.173 | 0.0218 |
| TALDO1 | 0.0753 | 0.188 | 0.272 | 0.022 |
| OPRM1 | 0.26 | 0.231 | 0.444 | 0.0438 |
| CWC25 | 0.123 | 0.318 | 0.314 | 0.022 |
| MCOLN3 | 0.0884 | 0.115 | 0.306 | 0.0185 |
| HOXC9 | 0.105 | 0.0972 | 0.275 | 0.0354 |
